Test results as given in patent US20190142913A1 (CREATIVE BIOTHERAPEUTICS, published 2019).
Results are given in words; binding and its absence hold for the method and conditions named. Binding seen in cells or lysates may run through a third protein. A yes stands for co-enrichment or nearness to the bait. Other partners may have been found.

Sequences of proteins named here, by UniProt entry; tags and fusion partners are left off. Residues count along the entry.
UniProt Q01973, residues 30-937: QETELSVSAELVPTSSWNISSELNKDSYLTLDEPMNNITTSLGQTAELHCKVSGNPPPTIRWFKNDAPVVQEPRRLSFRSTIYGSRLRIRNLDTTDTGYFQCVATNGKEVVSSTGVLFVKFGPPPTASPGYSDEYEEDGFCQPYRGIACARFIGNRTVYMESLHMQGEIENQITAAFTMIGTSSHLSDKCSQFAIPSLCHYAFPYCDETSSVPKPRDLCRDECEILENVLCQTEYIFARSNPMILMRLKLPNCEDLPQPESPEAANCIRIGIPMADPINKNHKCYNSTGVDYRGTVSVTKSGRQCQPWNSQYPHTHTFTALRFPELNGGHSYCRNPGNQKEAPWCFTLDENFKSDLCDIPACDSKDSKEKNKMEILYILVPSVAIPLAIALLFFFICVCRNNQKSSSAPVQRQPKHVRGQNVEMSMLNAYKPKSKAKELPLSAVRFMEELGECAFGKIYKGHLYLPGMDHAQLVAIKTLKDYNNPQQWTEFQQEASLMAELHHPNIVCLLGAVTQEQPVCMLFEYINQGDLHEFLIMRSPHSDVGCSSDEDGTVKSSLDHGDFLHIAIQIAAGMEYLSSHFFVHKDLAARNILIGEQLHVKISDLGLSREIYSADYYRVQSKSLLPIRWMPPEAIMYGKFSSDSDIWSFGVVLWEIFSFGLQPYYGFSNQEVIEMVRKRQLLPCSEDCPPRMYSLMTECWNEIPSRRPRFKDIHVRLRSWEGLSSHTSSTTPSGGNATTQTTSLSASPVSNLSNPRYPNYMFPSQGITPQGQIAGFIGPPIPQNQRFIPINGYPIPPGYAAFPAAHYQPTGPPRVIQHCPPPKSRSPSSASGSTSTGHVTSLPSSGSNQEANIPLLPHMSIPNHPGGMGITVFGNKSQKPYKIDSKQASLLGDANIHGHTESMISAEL
UniProt P11021, residues 19-654: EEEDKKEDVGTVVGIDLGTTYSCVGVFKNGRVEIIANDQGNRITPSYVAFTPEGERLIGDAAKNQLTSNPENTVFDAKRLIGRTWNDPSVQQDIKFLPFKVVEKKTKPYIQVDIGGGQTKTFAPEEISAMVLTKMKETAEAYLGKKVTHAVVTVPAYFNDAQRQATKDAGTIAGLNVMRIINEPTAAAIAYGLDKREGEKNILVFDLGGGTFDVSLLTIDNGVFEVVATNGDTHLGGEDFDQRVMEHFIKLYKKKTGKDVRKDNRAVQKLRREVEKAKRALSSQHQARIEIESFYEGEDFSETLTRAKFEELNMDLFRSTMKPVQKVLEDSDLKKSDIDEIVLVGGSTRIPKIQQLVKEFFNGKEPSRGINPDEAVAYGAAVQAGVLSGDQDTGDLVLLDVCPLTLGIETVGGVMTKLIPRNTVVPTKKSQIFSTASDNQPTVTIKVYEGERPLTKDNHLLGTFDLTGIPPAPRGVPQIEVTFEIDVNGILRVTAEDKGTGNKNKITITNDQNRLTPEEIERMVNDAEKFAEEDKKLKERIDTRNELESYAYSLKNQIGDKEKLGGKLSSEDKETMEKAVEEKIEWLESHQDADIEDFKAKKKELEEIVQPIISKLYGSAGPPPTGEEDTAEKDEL

Molecular target: ROR1 (receptor tyrosine kinase-like orphan receptor 1) (human) (UniProt Q01973)
Assay: pull-down from D54 glioma lysate with GRP78-Biotin on neutravidin-agarose, PAGE and mass spectrometry

binding: binds
Substance: GRP78-Biotin (GRP78 (StressMarq) labeled with Biotin) (from UniProt P11021 19-654)
